Results reported in PMC7819943, “Rice protein-binding microarrays: a tool to detect cis-acting elements near promoter regions in rice”.
This is one part of the list.

biological target: T1, OsSMF1 (Oryza sativa, UniProt Q6ZLB0 1-436); assay: protein-binding microarray (RPBM); PBS, 2% BSA, 51.3 ng/ul salmon testes DNA, 50 uM zinc acetate, 200 nM TF, 25 C, 1 h; high values mean tight binding; details: protein: recombinant; tags: N-terminal polyhistidine and DsRed monomer fusion (pET32a); chain copies: 2; label: CyDye5-dUTP incorporated in the synthesized complementary strand; 3' TTTTT single-stranded linker to array surface; dsDNA, one strand shown
T1 sequence: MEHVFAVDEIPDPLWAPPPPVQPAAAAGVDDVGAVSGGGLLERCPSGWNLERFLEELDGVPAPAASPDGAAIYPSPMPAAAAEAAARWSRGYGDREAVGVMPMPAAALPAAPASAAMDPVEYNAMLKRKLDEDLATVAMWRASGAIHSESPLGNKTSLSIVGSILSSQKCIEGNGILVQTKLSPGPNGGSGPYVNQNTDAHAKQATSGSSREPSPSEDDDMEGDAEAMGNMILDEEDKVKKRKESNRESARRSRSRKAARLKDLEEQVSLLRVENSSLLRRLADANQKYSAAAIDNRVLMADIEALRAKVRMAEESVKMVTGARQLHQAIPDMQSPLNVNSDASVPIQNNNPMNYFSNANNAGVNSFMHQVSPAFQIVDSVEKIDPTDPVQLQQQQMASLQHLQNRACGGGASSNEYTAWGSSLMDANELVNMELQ
How it was run: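 Using Ni–NTA, transcription factors fused N-terminally to polyhistidine and DsRed were purified after expression in E. coli BL21-CodonPlus. These were incubated at 200 nM with a blocked, double-stranded custom Agilent array for 1 h at 25 °C in a buffer containing 50 µM zinc acetate, and the array was washed. The binding signal is per-feature fluorescence intensity (arbitrary units) on an Axon 4000B scanner.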

Sequence	binding signal
GAGAAAGCACACGACCTCCACGATGGAGATGGAGGCACAACGGAGTCACCTAGTGCAG	3510 fluorescence intensity (a.u.)
TGCTGATCCATTATTGCTATGCTTGATGCGCATGGGTTGGCGGAGTCACCTAGTGCAG	3340 fluorescence intensity (a.u.)
ACTGATCACCATCGGTCCCAGTCCCAGTCCAACACTTCCACGGAGTCACCTAGTGCAG	36900 fluorescence intensity (a.u.)
GTGCCGGGCCGGCACGGCTACTGTAGTGGCACGTGGGCTGCGGAGTCACCTAGTGCAG	6010 fluorescence intensity (a.u.)
TCGACCTGCCGCGCTGGAGACCGCGGCGTTCATTGGGCTGCGGAGTCACCTAGTGCAG	18000 fluorescence intensity (a.u.)
GGATGGACGCGGAATGCCACCGTAGAACGACGTGACACTGCGGAGTCACCTAGTGCAG	4930 fluorescence intensity (a.u.)
ACGCTATCCCGCCGCCGCCGCGTGTCTCCCCAATCCCAATCGGAGTCACCTAGTGCAG	4980 fluorescence intensity (a.u.)
AACACAGGTGGGGACATCGTATGGTGACAATGAGTCAATGCGGAGTCACCTAGTGCAG	3230 fluorescence intensity (a.u.)
AATACAACAAGTTTAGACATACATCTGTCCAGATTCGTTGCGGAGTCACCTAGTGCAG	3490 fluorescence intensity (a.u.)
GGCCTAAACTGGTGTCTGGTGTGGCCCATTAACACTTCAGCGGAGTCACCTAGTGCAG	3740 fluorescence intensity (a.u.)
TTCCTCTAATTAACGTGTCAGCGGTCTAGGTCACGTAAGACGGAGTCACCTAGTGCAG	4430 fluorescence intensity (a.u.)
GCTTTGCCGTGACGCGTCTCATGTGTTGGGACGAGGCTCACGGAGTCACCTAGTGCAG	6790 fluorescence intensity (a.u.)
CAGATTCTGTCCGTGGTTTGGTGAGCTGGACAGCCGTCCACGGAGTCACCTAGTGCAG	3190 fluorescence intensity (a.u.)
ACAGTCTCCTCTACAAGATACTGAGAACTGCTTCAGTGAGCGGAGTCACCTAGTGCAG	19800 fluorescence intensity (a.u.)
TGGGGATGAGACTGAGTGAGGTGGACAGATAAGCTGGGGCCGGAGTCACCTAGTGCAG	6020 fluorescence intensity (a.u.)
ATGACTACTCCTACTCCTAGTAGACGCATCGCTTTCCAATCGGAGTCACCTAGTGCAG	3960 fluorescence intensity (a.u.)
AGCGCCTTTAATACCGTCGTCACCGATCGGCTTCCGTTTTCGGAGTCACCTAGTGCAG	5030 fluorescence intensity (a.u.)
GGCTGCCACGTAACAGTCGGGTTATAGAACTAGTTCTTTGCGGAGTCACCTAGTGCAG	6970 fluorescence intensity (a.u.)
AAATCTGTATTAAGATGACACATTGCATCAATGTACAAATCGGAGTCACCTAGTGCAG	4100 fluorescence intensity (a.u.)
AATTAGATGTGTCACTCGTCTTCACTATAAAACTTGCCGTCGGAGTCACCTAGTGCAG	5610 fluorescence intensity (a.u.)
CATTGCAGAGCGGCCTTTCACGTGGCCTTCTTTCTGCCCTCGGAGTCACCTAGTGCAG	3710 fluorescence intensity (a.u.)

Shown as labelled records: entries from further up
CAGATTCTGTCCGTGGTTTGGTGAGCTGGACAGCCGTCCACGGAGTCACCTAGTGCAG
  binding signal = 3190 fluorescence intensity (a.u.)
ACAGTCTCCTCTACAAGATACTGAGAACTGCTTCAGTGAGCGGAGTCACCTAGTGCAG
  binding signal = 19800 fluorescence intensity (a.u.)
TGGGGATGAGACTGAGTGAGGTGGACAGATAAGCTGGGGCCGGAGTCACCTAGTGCAG
  binding signal = 6020 fluorescence intensity (a.u.)
ATGACTACTCCTACTCCTAGTAGACGCATCGCTTTCCAATCGGAGTCACCTAGTGCAG
  binding signal = 3960 fluorescence intensity (a.u.)

Additional results follow.

Sequence	binding signal
ATAAACCAACGAACGGAGCGGGTCCCATTTACCCAAAAGCCGGAGTCACCTAGTGCAG	15300 fluorescence intensity (a.u.)
CGGTGCTCCCATGGTGGCGCAGCGCCACGCTTGTGGGTTGCGGAGTCACCTAGTGCAG	3840 fluorescence intensity (a.u.)
TCGAAAACTTTTCAGCCACGTGATGTTGGCAATCGCTGTTCGGAGTCACCTAGTGCAG	7190 fluorescence intensity (a.u.)
CTTCCATTCTTTCTAGTGCACTGTCTCAGTCAGGCATTATCGGAGTCACCTAGTGCAG	3370 fluorescence intensity (a.u.)
GTTGACTGTGATCCGAGTATCTGACGTGTGTCCGTTGCATCGGAGTCACCTAGTGCAG	17300 fluorescence intensity (a.u.)
TCGAGCTTGGCTGGATGCTATCGTCAGTTGGTCTCCTTACCGGAGTCACCTAGTGCAG	3950 fluorescence intensity (a.u.)
CCCGATATTGACCGCACGCCGCCACGACAAATCTGCTCGGCGGAGTCACCTAGTGCAG	4820 fluorescence intensity (a.u.)
AAGTTAAGATGCTAGATATCATTCGTCAGCAAGCTAGAAGCGGAGTCACCTAGTGCAG	4880 fluorescence intensity (a.u.)
CGGAACGGCGGTGACGCCAGTGATCCCCTCGTCCCGAATACGGAGTCACCTAGTGCAG	4180 fluorescence intensity (a.u.)
TCGAAGCCCTCAAGACAGCCACGCACGCGGCCCGCGCCGCCGGAGTCACCTAGTGCAG	5660 fluorescence intensity (a.u.)
ATATATGACGCCATTAACTTTTCAAGATACATTTGATCATCGGAGTCACCTAGTGCAG	3610 fluorescence intensity (a.u.)
CCAACCCACCCGAAAGAAGCAGCCCACATCAACCTATTTTCGGAGTCACCTAGTGCAG	3440 fluorescence intensity (a.u.)
TGCAAGAACAAGCTGGATTTTGGCAAAGAATTTGTATGCTCGGAGTCACCTAGTGCAG	13900 fluorescence intensity (a.u.)
TACTTAACTACGTACGTAATCACGCCCAGTACCTTGTGGACGGAGTCACCTAGTGCAG	4140 fluorescence intensity (a.u.)
TGCGGGAACGACGCCACCGGGATGGCGTCGAAGCAGCTGTCGGAGTCACCTAGTGCAG	7720 fluorescence intensity (a.u.)
GATTTGGGCAGCTGAAGCTCTGCCGATTCCGGTTGGGAATCGGAGTCACCTAGTGCAG	5150 fluorescence intensity (a.u.)
CACAAGGGGAAGGGGAGGGCCTCCGCACTGCACATCTCATCGGAGTCACCTAGTGCAG	3150 fluorescence intensity (a.u.)
TGTGTACCAGCTGTGTATGACGCCATCGAATCAGTCTTCCCGGAGTCACCTAGTGCAG	3280 fluorescence intensity (a.u.)
GGCGGTATGGTGAACCCTGCGAGATCCTTATCCTGTCACTCGGAGTCACCTAGTGCAG	23800 fluorescence intensity (a.u.)
ACCAAATGACATGACTCACTTAGATCCTAATAGGACATCCCGGAGTCACCTAGTGCAG	4400 fluorescence intensity (a.u.)
GATCCGTCGCGTCGCCGTCGTCGCCACGCGTGTCACGACGCGGAGTCACCTAGTGCAG	6470 fluorescence intensity (a.u.)
